Laboratory results reported in article PMC8366450.
No constants are given. Whether binding was seen depends on the method and setting. In cells and extracts the contact can be indirect. Some entries that bind do so weakly or less than the wild type.

By UniProt entry, the sequences of proteins in these tests, tags left out.
UniProt O96013: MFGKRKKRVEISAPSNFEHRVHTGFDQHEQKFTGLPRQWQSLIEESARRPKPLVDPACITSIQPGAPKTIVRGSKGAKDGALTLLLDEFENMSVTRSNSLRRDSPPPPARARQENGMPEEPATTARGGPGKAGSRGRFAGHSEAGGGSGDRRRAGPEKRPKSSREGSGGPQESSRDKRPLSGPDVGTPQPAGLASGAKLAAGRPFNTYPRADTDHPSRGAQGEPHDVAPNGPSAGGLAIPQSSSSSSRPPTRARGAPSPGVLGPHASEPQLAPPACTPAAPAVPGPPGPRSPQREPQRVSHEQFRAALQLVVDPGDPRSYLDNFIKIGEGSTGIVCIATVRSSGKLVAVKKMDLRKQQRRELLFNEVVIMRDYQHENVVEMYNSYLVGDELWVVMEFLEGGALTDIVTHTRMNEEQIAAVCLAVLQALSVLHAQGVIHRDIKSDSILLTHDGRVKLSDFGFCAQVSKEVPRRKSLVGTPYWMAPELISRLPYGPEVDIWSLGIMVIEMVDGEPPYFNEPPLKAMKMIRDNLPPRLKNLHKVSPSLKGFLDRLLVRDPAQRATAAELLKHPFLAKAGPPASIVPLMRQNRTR
UniProt O00459: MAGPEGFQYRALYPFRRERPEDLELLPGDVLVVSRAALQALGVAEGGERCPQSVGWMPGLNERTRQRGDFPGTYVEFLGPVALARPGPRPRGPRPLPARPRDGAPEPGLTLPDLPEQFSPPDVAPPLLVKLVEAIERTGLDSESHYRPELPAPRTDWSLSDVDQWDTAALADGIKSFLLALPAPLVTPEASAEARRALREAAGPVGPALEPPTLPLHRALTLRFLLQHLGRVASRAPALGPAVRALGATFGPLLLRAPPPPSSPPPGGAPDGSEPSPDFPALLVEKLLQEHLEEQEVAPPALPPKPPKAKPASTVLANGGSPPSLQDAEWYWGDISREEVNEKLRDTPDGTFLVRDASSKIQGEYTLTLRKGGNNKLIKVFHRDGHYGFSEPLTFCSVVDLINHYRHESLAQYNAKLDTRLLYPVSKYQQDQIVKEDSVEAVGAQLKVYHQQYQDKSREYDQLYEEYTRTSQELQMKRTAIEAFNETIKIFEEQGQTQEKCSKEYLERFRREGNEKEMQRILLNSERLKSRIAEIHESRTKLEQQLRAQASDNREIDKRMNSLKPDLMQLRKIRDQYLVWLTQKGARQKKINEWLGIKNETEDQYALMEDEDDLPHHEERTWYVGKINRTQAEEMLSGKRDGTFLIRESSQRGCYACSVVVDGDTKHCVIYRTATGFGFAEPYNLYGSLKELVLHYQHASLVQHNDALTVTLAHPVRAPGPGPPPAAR

Key:
myc-tagged PAK4 (human) = myc-tagged PAK4 (human) (UniProt O96013); assay: co-IP; HEK293T cells cotransfected with flag-CPPED1 and myc-PAK4 or myc-PIK3R2, 48 h; precipitation with anti-c-Myc agarose, control agarose as negative control; Western blot with anti-flag and anti-CPPED1
[1] = molecular target: myc-tagged PIK3R2 (human) (UniProt O00459); assay: as above

Substance: flag-tagged CPPED1 (from UniProt Q9BRF8 1-314) (enzyme)
- binding (myc-tagged PAK4 (human)): binds
- binding [1]: binds
